Measured values as given in US20150272885A1 (STC UNM, published 2015).
These are yes or no findings as the source states them, for the method shown. Some results given as binding are weak or reduced against the parent protein; the word gives no strength.

Chains of the proteins cited; added tags and fusions are not shown. Residues count along the entry.
UniProt P52799, residues 28-333: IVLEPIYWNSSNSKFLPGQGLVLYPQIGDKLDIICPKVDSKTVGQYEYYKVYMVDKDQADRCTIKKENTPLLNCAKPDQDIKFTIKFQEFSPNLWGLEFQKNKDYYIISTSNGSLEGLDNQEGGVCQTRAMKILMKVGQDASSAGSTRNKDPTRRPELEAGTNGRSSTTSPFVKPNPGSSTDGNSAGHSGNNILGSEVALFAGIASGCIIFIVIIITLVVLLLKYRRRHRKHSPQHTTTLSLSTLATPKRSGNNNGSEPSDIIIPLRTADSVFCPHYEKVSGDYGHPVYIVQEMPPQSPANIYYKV

Target: T1, ephrin B2 (EB2) on cells (human, UniProt P52799 28-333)
T1 construct: whole, on cells; The species is stated as human for the CHO-K1 transfectants; also called human ephrin B2
Experiment: flow cytometry on HEK 293 cells

binding	Binder
binds	TGAILHP (conjugated to DOPE in the supported lipid bilayer) [TGAILHP-targeted MSN-SLBs, low peptide valency (0.015 wt % or ~5 peptides/particle)]
binds	TGAILHP (conjugated to DOPE in the supported lipid bilayer) [TGAILHP-targeted MSN-SLBs, high peptide valency (1.5 wt % or ~500 peptides/particle)]
